Measurements reported in US5554725 (dated 1996).

Experiments:
[1] = solution-phase peptide synthesis; diethyl phosphorocyanidate (DEPC), triethylamine; conditions: whole synthesis, overall
[2] = general procedure: solution-phase peptide synthesis; diethyl phosphorocyanidate (DEPC), triethylamine

## (S)-Dov-(S)-Val-(S)-NMe-Val-(S)-Pro-(S)-Pro-(8)-Hiva-(S)-Dpy
[1]
  isolated yield: 11%
[2]; coupling step
  step yield: 97%

## Z-(S)-Val-NMe-(S)-Val-(S)-Pro-(S)-Pro-(S-Hiva-(S)-Dpy
[2]; coupling step
  step yield: 89%

## (S)-Val-NMe-(S)-Val-(S)-Pro-(S)-Pro-(S)-Hiva-(S) -Dpy
[2]; late stage modification step
  step yield: 96%
